Structures are written as SMILES. Some compounds share one wording; it may come from a single statement.

The nature of one series: Autofluorescence of compounds.
Details: not given
As to `CC(C)=CCc1c2c(c3occ(-c4ccc(O)c(O)c4)c(=O)c3c1O)C=CC(C)(C)O2` [Compound 69, Pomiferin], the autofluorescence entry is recorded as “none of these compounds have autofluorescence”.

Consider `CC(C)=CCOc1ccc(/C=C/C(=O)c2ccc(OCC=C(C)C)cc2OCC(=O)O)cc1` [Compound 68, Sofalcone, reference compound], for which the autofluorescence entry is reported as “none of these compounds have autofluorescence”. Take `O=C(NCc1ccc(F)cc1)C1C(=O)N(O)C(=O)c2cc(C(F)(F)F)ccc21` (centres unmarked) [Compound 112, 7-trifluoromethyl-N-(4-fluorobenzyl)-2-hydroxy-1,3-dioxo-4H-isoquinoline-4-carboxamide]: the autofluorescence result is listed as “none of these compounds have autofluorescence”. Still for that read-out and setting: with `CC(C)=CCc1c(O)ccc(C(=O)/C=C/c2ccc(O)cc2)c1O` [Compound 77, Isobavachalcone] the entry was “none of these compounds have autofluorescence”.

The same series, now with this note: 250 μM final concentration.
Turning to `Cc1c(S(=O)(=O)[O-])oc2c1C(=O)C(=O)c1c-2ccc2c1CCCC2(C)C.[Na+]` [Compound 60, Tanshinone IIA sulfonate], the autofluorescence entry is given as “none of these compounds have autofluorescence”.

Regarding `Oc1ccc(CC2NCCc3cc(O)c(O)cc32)cc1O` (centres unmarked) [Compound 54, Tetrahydropapaveroline], the autofluorescence entry was “none of these compounds have autofluorescence”. Regarding `Cc1ccc2ccc(C(=O)O)c(O)c2n1` [Compound 78, 2-methyl-8-hydroxyquinoline-7-carboxylic acid], the autofluorescence entry is “none of these compounds have autofluorescence”. Still for that read-out and setting: for `O=C(c1ccccc1)c1ccc2ccc(/C=C/c3ccc(O)c(O)c3)nc2c1O` [Compound 96, 7-benzoyl-2-(3,4-dihydroxyvinyl)-8-hydroxyquinoline] the value was “none of these compounds have autofluorescence”.

The record behind these values is patent US20250213569A1, “METHODS AND COMPOSITIONS FOR MEASURING AND INHIBITING EXONUCLEASE ACTIVITY” (priority 2020, published 2025).
